Binding data for three molecules are collected here from PMC5548489.

By UniProt entry, the sequences of proteins in these tests, tags left out.
UniProt P03372: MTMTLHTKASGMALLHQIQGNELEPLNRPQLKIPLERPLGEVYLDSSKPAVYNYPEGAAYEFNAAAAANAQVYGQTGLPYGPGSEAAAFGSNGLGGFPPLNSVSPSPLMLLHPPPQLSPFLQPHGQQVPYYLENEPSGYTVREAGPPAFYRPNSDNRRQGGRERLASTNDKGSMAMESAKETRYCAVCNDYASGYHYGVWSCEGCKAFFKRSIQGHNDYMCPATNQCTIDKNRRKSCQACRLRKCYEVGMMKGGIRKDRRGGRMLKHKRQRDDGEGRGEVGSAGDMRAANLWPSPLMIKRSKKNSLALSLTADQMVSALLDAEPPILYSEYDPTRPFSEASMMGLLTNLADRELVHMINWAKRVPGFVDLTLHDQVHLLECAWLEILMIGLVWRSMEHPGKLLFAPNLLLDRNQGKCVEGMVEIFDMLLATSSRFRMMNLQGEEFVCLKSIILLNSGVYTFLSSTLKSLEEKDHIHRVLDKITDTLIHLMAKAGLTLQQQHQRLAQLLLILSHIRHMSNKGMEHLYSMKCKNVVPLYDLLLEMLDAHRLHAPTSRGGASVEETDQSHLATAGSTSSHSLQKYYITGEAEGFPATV

These are yes or no findings as the source states them, for the method shown. Binding seen in cells or lysates may run through a third protein. A yes stands for co-enrichment or nearness to the bait. Other partners may have been found.

To fix the notation:
B1: CD2BP2 (protein, UniProt O95400 1-341)
chain: MPKRKVTFQGVGDEEDEDEIIVPKKKLVDPVAGSGGPGSRFKGKHSLDSDEEEDDDDGGSSKYDILASEDVEGQEAATLPSEGGVRITPFNLQEEMEEGHFDADGNYFLNRDAQIRDSWLDNIDWVKIRERPPGQRQASDSEEEDSLGQTSMSAQALLEGLLELLLPRETVAGALRRLGARGGGKGRKGPGQPSSPQRLDRLSGLADQMVARGNLGVYQETRERLAMRLKGLGCQTLGPHNPTPPPSLDMFAEELAEEELETPTPTQRGEAESRGDGLVDVMWEYKWENTGDAELYGPFTSAQMQTWVSEGYFPDGVYCRKLDPPGGQFYNSKRIDFDLYT
B2: Q9NVI7-2 (protein, UniProt Q9NVI7-2 1-586)
chain: MSWLFGINKGPKGEGAGPPPPLPPAQPGAEGGGDRGLGDRPAPKDKWSNFDPTGLERAAKAARELEHSRYAKDALNLAQMQEQTLQLEQQSKLKEYEAAVEQLKSEQIRAQAEERRKTLSEETRQHQARAQYQDKLARQRYEDQLKQQQLLNEENLRKQEESVQKQEAMRRATVEREMELRHKNEMLRVEAEARARAKAERENADIIREQIRLKAAEHRQTVLESIRTAGTLFGEGFRAFVTDWDKVTATVAGLTLLAVGVYSAKNATLVAGRFIEARLGKPSLVRETSRITVLEALRHPIQVSRRLLSRPQDALEGVVLSPSLEARVRDIAIATRNTKKNRSLYRNILMYGPPGTGKTLFAKKLALHSGMDYAIMTGGDVAPMGREGVTAMHKLFDWANTSRRGLLLFVDEADAFLRKRATEKISEDLRATLNAFLYRTGQHSNKFMLVLASNQPEQFDWAINDRINEMVHFDLPGQEERERLVRMYFDKYVLKPATEGKQRLKLAQFDYGRKCSEVARLTEGMSGREIAQLAVSWQATAYASEDGVLTEAMMDTRVQDAVQQHQQKMCWLKAEGPGRGDEPSPS
B3: FAM83H (protein, UniProt Q6ZRV2 1-1179)
chain: MARRSQSSSQGDNPLAPGYLPPHYKEYYRLAVDALAEGGSEAYSRFLATEGAPDFLCPEELEHVSRHLRPPQYVTREPPEGSLLDVDMDGSSGTYWPVNSDQAVPELDLGWPLTFGFQGTEVTTLVQPPPPDSPSIKDEARRMIRSAQQVVAVVMDMFTDVDLLSEVLEAAARRVPVYILLDEMNAQHFLDMADKCRVNLQHVDFLRVRTVAGPTYYCRTGKSFKGHVKEKFLLVDCAVVMSGSYSFMWSFEKIHRSLAHVFQGELVSSFDEEFRILFAQSEPLVPSAAALARMDAYALAPYAGAGPLVGVPGVGAPTPFSFPKRAHLLFPPPREEGLGFPSFLDPDRHFLSAFRREEPPRMPGGALEPHAGLRPLSRRLEAEAGPAGELAGARGFFQARHLEMDAFKRHSFATEGAGAVENFAAARQVSRQTFLSHGDDFRFQTSHFHRDQLYQQQYQWDPQLTPARPQGLFEKLRGGRAGFADPDDFTLGAGPRFPELGPDGHQRLDYVPSSASREVRHGSDPAFAPGPRGLEPSGAPRPNLTQRFPCQAAARPGPDPAPEAEPERRGGPEGRAGLRRWRLASYLSGCHGEDGGDDGLPAPMEAEAYEDDVLAPGGRAPAGDLLPSAFRVPAAFPTKVPVPGPGSGGNGPEREGPEEPGLAKQDSFRSRLNPLVQRSSRLRSSLIFSTSQAEGAAGAAAATEKVQLLHKEQTVSETLGPGGEAVRSAASTKVAELLEKYKGPARDPGGGAGAITVASHSKAVVSQAWREEVAAPGAVGGERRSLESCLLDLRDSFAQQLHQEAERQPGAASLTAAQLLDTLGRSGSDRLPSRFLSAQSHSTSPQGLDSPLPLEGSGAHQVLHNESKGSPTSAYPERKGSPTPGFSTRRGSPTTGFIEQKGSPTSAYPERRGSPVPPVPERRSSPVPPVPERRGSLTLTISGESPKAGPAEEGPSGPMEVLRKGSLRLRQLLSPKGERRMEDEGGFPVPQENGQPESPRRLSLGQGDSTEAATEERGPRARLSSATANALYSSNLRDDTKAILEQISAHGQKHRAVPAPSPGPTHNSPELGRPPAAGVLAPDMSDKDKCSAIFRSDSLGTQGRLSRTLPASAEERDRLLRRMESMRKEKRVYSRFEVFCKKEEASSPGAGEGPAEEGTRDSKVGKFVPKILGTFKSKK

For the experiment, the target named is estrogen receptor alpha (ER) (human (endogenous in MCF-7 and ZR-75)) (UniProt P03372). Briefly: affinity purification with mass spectrometry; anti-ER antibody (Santa Cruz sc-8002) on Dynabeads Protein G, 1.5 mg lysate of MCF-7 or ZR-75 cells overnight at 4°C; cells starved, vehicle or 10 µM ERX-11 for 2 hr, then 10 nM E2 for 2 hr; the named proteins are ER binders whose co-precipitation was disrupted by ERX-11.
Take B1: the binding result was “binds”. With B2, the binding result is “binds”. Consider B3, for which the binding entry is recorded as “binds”.
